In PubChem BioAssay AID493014 (National Center for Advancing Translational Sciences (NCATS), 2011) one finds AC50 data, which are given here for 18 compounds.

This is one part of the list. The main result of the screen is listed elsewhere. These columns were measured beside it and carry no call. Most of these compounds were active or inconclusive in the main read-out, so they are no random draw. Potencies come from curve fits of mixed quality, noted in brackets.

The assay in a line: qHTS Assay to Find Inhibitors of Chronic Active B-Cell Receptor Signaling. The following applies: ABC-DLBCL IkBa-CBG/CBR reporter, luminescence ratio (green luciferase fused to IkBa over red control in TMD8 lymphoma cells), 4 h. The essentials: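 Compounds up to 46 uM were incubated four hours with TMD8 cells whose green CBG68 luciferase is fused to IkappaBalpha; red CBR luminescence normalised the signal, and concentration-effect curves were fitted to fusion, red and ratio data.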
In general terms: qHTS replaces the single test concentration by a dilution series.

Where [1] appears, read: measured here: CBR red luminescence, cell number.
The mark [2] stands for this setting: measured here: IkBa-CBG green luminescence.

Consider `CCCCNC(=O)c1onc(CSc2ccccc2)c1C(=O)O`, for which, under setting [1], the AC50 (as a rule, the concentration giving half of the maximal activity seen) is 35.5 µM [falling, single point].

For the compound `c1ccc(OCc2nnc(-c3ccccc3)o2)cc1`, the concentration at half-maximal activity (AC50) under setting [1] is 15.8 µM [falling, single point].

Turning to `C=CCc1cc(/C=N/n2cnnc2)cc(OCC)c1O`, the concentration at half-maximal activity (AC50) under setting [1] is 10 µM [rising, partial curve, poor fit].

Take `S=c1[nH]c(-c2ccccc2)cn1/N=C/c1ccncc1`: under setting [1], the AC50 was 35.5 µM [falling, single point].

Take `O=C(O)CC1=C(Nc2ccccc2)C(=O)N(c2ccccc2)C1c1ccc(F)cc1` (stereo not given): the AC50 under setting [1] is 23.1 µM [falling, single point].

Turning to `N#CC(C#N)=NNc1ccc(S(=O)(=O)N2CCCCC2)cc1`, under setting [1], the AC50 was 32.6 µM [falling, single point].

Turning to `COc1cccc(-c2sc3ccc(OC)cc3c2-c2ccc(OCCN3CCCCC3)cc2)c1`, under setting [2], the concentration at half-maximal activity (AC50) was 23.1 µM [falling, partial curve, poor fit].

Take `COc1ccc(C2C(C(C)=O)=C(O)C(=O)N2c2ccc(C)cc2)cc1` (stereo not given): the concentration at half-maximal activity (AC50) under setting [1] was 11.2 µM [rising, single point].

As to `Cc1ccc(C(=O)Nc2ccc(N3CCN(C(=O)c4cccs4)CC3)cc2)c(Cl)c1`, the AC50 under setting [1] was 10 µM [falling, partial curve].

On to `Cc1cc2c(cc(C(=O)NCCCN3CCOCC3)n2Cc2ccc(Cl)cc2)o1`, for which, under setting [1], the concentration at half-maximal activity (AC50) was 20.6 µM [rising, partial curve, poor fit].

For `NC(=O)c1ccccc1NC(=O)CCCc1ccccc1`, the AC50 under setting [1] is 15.8 µM [falling, single point].

Consider `OC(c1cc(-c2ccc(Cl)cc2)nc2ccccc12)C1CCCCN1` (stereo not given), for which the concentration at half-maximal activity (AC50) under setting [1] was 20 µM [falling, partial curve, poor fit].

For the compound `CCN(CC)c1ccc(N=Nc2nn(C)c(C)c2[N+](=O)[O-])cc1`, the concentration at half-maximal activity (AC50) under setting [1] was 13 µM [rising, partial curve].

In the case of `COc1ccc(-c2nnn(Cc3nc(N)nc(N4CCOCC4)n3)n2)cc1OC`, under setting [1], the concentration at half-maximal activity (AC50) was 1.78 µM [falling, partial curve, poor fit].

For the compound `CCCCC(=O)NC(=S)Nc1nnn(CCC)n1`, the AC50 reads like this: under setting [1], 22.4 µM [falling, partial curve]; under setting [2], 2.82 µM [falling, full curve].

For the compound `O=C(COc1ccc(CO)cc1Cl)Nc1ccc(F)cc1`, the half-maximal activity concentration (AC50) under setting [1] is 20.6 µM [falling, single point].

With `O=C(O)c1ccc(-c2nc3ccccc3s2)o1`, the half-maximal activity concentration (AC50) reads like this: under setting [1], 7.08 µM [falling, partial curve]; under setting [2], 12.6 µM [rising, partial curve, poor fit].

Consider `O=C(Nc1ccc(-c2csc(-c3ccccc3)n2)cc1)c1ccccc1Cl`, for which, under setting [1], the AC50 is 1.58 µM [falling, full curve, poor fit].
